Article PMC9469980
Results are given in words; binding and its absence hold for the method and conditions named. Binding seen in cells or lysates may run through a third protein. Some results given as binding are weak or reduced against the parent protein; the word gives no strength.

The chains behind the UniProt entries cited, without tags or fusion partners.
UniProt P08962: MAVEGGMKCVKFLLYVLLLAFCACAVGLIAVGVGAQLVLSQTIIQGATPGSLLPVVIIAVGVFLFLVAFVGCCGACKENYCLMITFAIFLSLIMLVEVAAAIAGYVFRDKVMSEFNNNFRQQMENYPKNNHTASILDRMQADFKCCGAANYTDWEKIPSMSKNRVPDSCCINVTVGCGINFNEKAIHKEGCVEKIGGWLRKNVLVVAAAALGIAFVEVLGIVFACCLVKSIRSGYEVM

Target: T1, flotillin-1 (UniProt O75955)
T1 sequence: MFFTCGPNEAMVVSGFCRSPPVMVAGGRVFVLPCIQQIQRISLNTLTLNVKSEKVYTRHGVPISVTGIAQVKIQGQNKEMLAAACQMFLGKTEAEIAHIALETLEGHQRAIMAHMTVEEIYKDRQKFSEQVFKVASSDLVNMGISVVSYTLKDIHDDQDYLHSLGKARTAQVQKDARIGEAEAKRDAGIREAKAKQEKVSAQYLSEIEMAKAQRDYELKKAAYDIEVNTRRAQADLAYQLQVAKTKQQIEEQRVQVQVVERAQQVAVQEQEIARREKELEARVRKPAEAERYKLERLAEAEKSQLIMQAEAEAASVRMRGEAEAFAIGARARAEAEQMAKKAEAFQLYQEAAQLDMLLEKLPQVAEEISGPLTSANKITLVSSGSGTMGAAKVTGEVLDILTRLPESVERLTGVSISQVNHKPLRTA
Test: co-IP; EV isolates (ExoQuick-TC) from supernatants of mock- or CVB-infected cells (MOI 0.1, 24 h); immunoprecipitated with flotillin-1 antibody on protein A/G PLUS-Agarose beads; blotted for VP1, flotillin-1 and CD63

CD63 (from UniProt P08962 1-238)
binding: binds
